In the supplement of paper PMC3682954:
Values joined by “and” are separate entries in the source; they are usually repeats but may differ in a detail not shown here. Equal values may be shown once. Where a name gives a salt, the structure may show the parent alone. ± gives the standard deviation of the averaged measurements. Some of the results follow. Single values are uncertain, as repeats are few or missing.

System: RAW 264.7
Assay: cell viability (MTT) relative to vehicle control; higher = more viable cells
Conditions: stimulus: HMGB1 5 ug/ml, 18 h
[1] = compound concentration: 1 ug/ml

| SMILES | cell viability (compound concentration: 3 uM) | cell viability [1] [%] |
| --- | --- | --- |
| c1cnc2c(c1)ccc1cccnc12 [1,10-Phenanthroline monohydrate] | 85.6% |  |
| CCOC(=O)C(C)(C)Oc1ccc(Cl)cc1 [Clofibrate] | 93.7 ± 12% |  |
| CCOC(=O)C(C)(C)Oc1ccc(Cl)cc1 | 98.1% |  |
| CCC(=O)Oc1cc2c(C)cc(=O)oc2cc1Cl |  | 91.8 |
| C[C@@H]1[C@H](O)[C@@H](C)/C=C/C=C/C=C/C=C/C=C/C=C/C=C/[C@H](O[C@@H]2O[C@H](C)[C@@H](O)[C@H](N)[C@@H]2O)C[C@@H]2O[C@](O)(C[C@@H](O)C[C@@H](O)[C@H](O)CC[C@@H](O)C[C@@H](O)CC(=O)O[C@H]1C)C[C@H](O)[C@H]2C(=O)O [Amphotericin B] | 132% |  |
| C[C@@H]1[C@H](O)[C@@H](C)/C=C/C=C/C=C/C=C/C=C/C=C/C=C/[C@H](O[C@@H]2O[C@H](C)[C@@H](O)[C@H](N)[C@@H]2O)C[C@@H]2O[C@](O)(C[C@@H](O)C[C@@H](O)[C@H](O)CC[C@@H](O)C[C@@H](O)CC(=O)O[C@H]1C)C[C@H](O)[C@H]2C(=O)O | 105 ± 7.9% |  |
| CO[C@@]1(NC(=O)CSCC#N)C(=O)N2C(C(=O)O)=C(CSc3nnnn3C)CS[C@@H]21 [Cefmetazole sodium salt] | 102% |  |
| CO[C@@]1(NC(=O)CSCC#N)C(=O)N2C(C(=O)O)=C(CSc3nnnn3C)CS[C@@H]21 | 102% |  |
| CO[C@@]1(NC(=O)CSCC#N)C(=O)N2C(C(=O)O)=C(CSc3nnnn3C)CS[C@@H]21 [Cefmetazole sodium] | 112% |  |
| C[C@]12CC[C@@H]3c4ccc(O)cc4CC[C@H]3[C@@H]1CC[C@@H]2OC(=O)CCC1CCCC1 | 103% |  |
| C[C@]12CC[C@@H]3c4ccc(O)cc4CC[C@H]3[C@@H]1CC[C@@H]2OC(=O)CCC1CCCC1 [beta-estradiol 17-cypionate] |  | 105 |
| O=C1C=C2CC3(O)COc4c(ccc(O)c4O)C3=C2C=C1O (stereo unspecified) [Hematein] |  | 109 |
| CN1CCc2cccc3c2[C@H]1Cc1ccc(O)c(O)c1-3 [Apomorphine R (-)] | 117% |  |
| CN1CCc2cccc3c2[C@H]1Cc1ccc(O)c(O)c1-3 [R(-) Apomorphine hydrochloride hemihydrate] | 104% |  |
| CN1CCc2cccc3c2[C@H]1Cc1ccc(O)c(O)c1-3 [Apomorphine hydrochloride hemihydrate] | 103% |  |
| CN1CCc2cccc3c2[C@H]1Cc1ccc(O)c(O)c1-3 | 107% |  |
| CCC(Cc1c(I)cc(I)c(N)c1I)C(=O)O (stereo unspecified) | 106% |  |
| CCC(Cc1c(I)cc(I)c(N)c1I)C(=O)O (stereo unspecified) [Iopanoic acid] | 91.3% |  |
| CCC(NC(C)C)C(O)c1ccc(O)c(O)c1 (stereo unspecified) [Isoetharine mesylate salt] | 116% |  |
| CCC(NC(C)C)C(O)c1ccc(O)c(O)c1 (stereo unspecified) [Isotharine mesylate] | 89.3% |  |
| CCC(NC(C)C)C(O)c1ccc(O)c(O)c1 (stereo unspecified) | 90.5% |  |

| SMILES | cell viability (compound concentration: 3 uM) | cell viability [1] [%] |
| --- | --- | --- |
| O.O.O.O.O=C([O-])CC(O)(CC(=O)[O-])C(=O)[O-].[Li+].[Li+].[Li+] | 103% |  |
| N#CC(c1ccc(Cl)cc1)c1c(Cl)cc(-n2ncc(=O)[nH]c2=O)cc1Cl (stereo unspecified) [Diclazuril] | 89.8 ± 5% |  |
| O=c1ccc2ccc(O)c(O)c2o1 [Daphnetin] | 110% |  |
| CC(=O)NCCc1c[nH]c2ccc(O)cc12 [N-Acetyl-5-hydroxytryptamine] | 101% |  |
| COc1cc(OC)c(C(=O)CCCN2CCCC2)c(OC)c1 | 99.4 ± 2.5% |  |
| COc1cc(OC)c(C(=O)CCCN2CCCC2)c(OC)c1 [Buflomedil hydrochloride] | 122% |  |
| CCCN(CCC)C(=O)C(CCC(=O)O)NC(=O)c1ccccc1 (stereo unspecified) [Proglumide] | 114 ± 2.5% |  |
| CCCN(CCC)C(=O)C(CCC(=O)O)NC(=O)c1ccccc1 (stereo unspecified) | 114% |  |
| CC[C@H](CC[C@@H](C)[C@H]1CC[C@H]2[C@@H]3CC=C4C[C@@H](O)CC[C@]4(C)[C@H]3CC[C@]12C)C(C)C [beta-Sitosterol] |  | 108 |
| COC(=O)c1ccccc1O [Methyl salicylate] | 119% |  |
| COc1ccc2c(c1)N(C[C@H](C)CN(C)C)c1ccccc1S2 [Methotrimeprazine maleat salt] | 102% |  |
| CC1(C)O[C@@H]2[C@H](O1)[C@@H](CO)O[C@H]2n1ccc(=O)[nH]c1=O [2',3'-O-Isopropylideneuridine] |  | 98.5 |
| CN1CCC(=C2c3ccccc3CC(=O)c3sccc32)CC1 [Ketotifen fumarate] | 91.9 ± 5.2% |  |
| CN1CCC(=C2c3ccccc3CC(=O)c3sccc32)CC1 | 96.2 ± 6.3% |  |
| CN1CCC(=C2c3ccccc3CC(=O)c3sccc32)CC1 [Ketotifen] | 111% |  |
| CN1CCCC(CC2c3ccccc3Sc3ccccc32)C1 (stereo unspecified) [Metixene hydrochloride] | 89.5% |  |
| COc1ccccc1N1CCN(CC(O)COc2cccc3ccccc23)CC1 (stereo unspecified) [Naftopidil dihydrochloride] | 104 ± 4.1% |  |
| COc1ccccc1N1CCN(CC(O)COc2cccc3ccccc23)CC1 (stereo unspecified) [Naftopidil] | 114% |  |
| COc1ccccc1N1CCN(CC(O)COc2cccc3ccccc23)CC1 (stereo unspecified) | 88.7% and 107% |  |
| CCN1C(=O)NC(c2ccccc2)C1=O (stereo unspecified) [Ethotoin] | 108% |  |
| Cc1cc2c(C(C)C)c(O)c(O)c(C=Nc3ccc(O)c(Cl)c3)c2c(O)c1-c1c(C)cc2c(C(C)C)c(O)c(O)c(C=Nc3ccc(O)c(Cl)c3)c2c1O |  | 103 |

| SMILES | cell viability (compound concentration: 3 uM) | cell viability [1] [%] |
| --- | --- | --- |
| CC(C)(Sc1cc(C(C)(C)C)c(O)c(C(C)(C)C)c1)Sc1cc(C(C)(C)C)c(O)c(C(C)(C)C)c1 | 117% |  |
| CC(C)(Sc1cc(C(C)(C)C)c(O)c(C(C)(C)C)c1)Sc1cc(C(C)(C)C)c(O)c(C(C)(C)C)c1 [Probucol] | 106% |  |
| CN1CCc2ccccc2Cc2[nH]c3ccccc3c2CC1 | 97.8% |  |
| Nc1c(Br)cc(Br)cc1CN[C@H]1CC[C@H](O)CC1 | 112% |  |
| Nc1c(Br)cc(Br)cc1CN[C@H]1CC[C@H](O)CC1 [Ambroxol] | 115% |  |
| Nc1c(Br)cc(Br)cc1CN[C@H]1CC[C@H](O)CC1 [Ambroxol hydrochloride] | 93.3% |  |
| Oc1ccc(Cl)c2cccnc12 | 101% |  |
| Cn1ccnc1S | 111 ± 2.7% |  |
| Cn1ccnc1S [Methimazole] | 112 ± 30% |  |
| CS(=O)(=O)CCNCc1ccc(-c2ccc3ncnc(Nc4ccc(OCc5cccc(F)c5)c(Cl)c4)c3c2)o1 [Lapatinib ditosylate] | 116% |  |
| CS(=O)(=O)CCNCc1ccc(-c2ccc3ncnc(Nc4ccc(OCc5cccc(F)c5)c(Cl)c4)c3c2)o1 [Lapatinib] | 131% |  |
| Nc1ccc(-c2nc3ccc(-c4nc5ccc(N)cc5[nH]4)cc3[nH]2)cc1 | 100% |  |
| CC(C)(Oc1ccc(Cl)cc1)C(=O)O [Clofibric acid] | 135% |  |
| CC(C)(Oc1ccc(Cl)cc1)C(=O)O | 117% |  |
| CN1CCCN=C1COC(=O)C(O)(c1ccccc1)C1CCCCC1 (stereo unspecified) | 111% |  |
| CN(C)CC/C=C1\c2ccccc2CSc2ccccc21 [Dosulepin hydrochloride] | 109% |  |
| N[C@@H](Cn1ccc(=O)c(O)c1)C(=O)O [L-Mimosine from Koa hoale seeds] | 108% |  |
| N[C@@H](Cn1ccc(=O)c(O)c1)C(=O)O [L-Mimosine] |  | 98.6 |
| CC(=O)NO | 101% |  |
| O=C1O[C@H](CO)[C@@H](O)[C@H](O)[C@H]1O | 111% |  |
| S=C(Nc1ccccc1)Nc1nccs1 [1-Phenyl-3-(2-thiazolyl)-2-thiourea] | 98.3% |  |

Quoted at random: 4 entries already listed

| SMILES | cell viability (compound concentration: 3 uM) | cell viability [1] [%] |
| --- | --- | --- |
| CC(C)(Oc1ccc(Cl)cc1)C(=O)O [Clofibric acid] | 135% |  |
| CN1CCCN=C1COC(=O)C(O)(c1ccccc1)C1CCCCC1 (stereo unspecified) | 111% |  |
| N[C@@H](Cn1ccc(=O)c(O)c1)C(=O)O [L-Mimosine from Koa hoale seeds] | 108% |  |
| CC(=O)NO | 101% |  |

More records follow:

| SMILES | cell viability (compound concentration: 3 uM) | cell viability [1] [%] |
| --- | --- | --- |
| CCCCCCCCCCC[C@@H](C[C@@H]1OC(=O)[C@H]1CCCCCC)OC(=O)[C@H](CC(C)C)NC=O | 101 ± 5.4% |  |
| COc1ccc(-c2ccc(=N)n(CCCC(=O)O)n2)cc1 | 107% |  |
| COc1ccc(-c2ccc(=N)n(CCCC(=O)O)n2)cc1 [Gabazine] | 107% |  |
| CO[C@H]1C[C@H](O[C@H]2[C@H](C)[C@@H](O[C@@H]3O[C@H](C)C[C@H](N(C)C)[C@H]3OC(C)=O)[C@@H](C)C[C@@]3(CO3)C(=O)[C@H](C)[C@@H](OC(C)=O)[C@@H](C)[C@@H](C)OC(=O)[C@@H]2C)O[C@@H](C)[C@@H]1OC(C)=O [Troleandomycin] | 106 ± 1.6% |  |
| Cc1cc(C(=O)NNCc2ccccc2)no1 [Isocarboxazid] | 124% |  |
| CC(C)(S)[C@@H](N)C(=O)O | 106% |  |
| CC(C)(S)[C@@H](N)C(=O)O [Penicillamine] | 109% |  |
| CSc1ccc(C(=O)c2[nH]c(=O)[nH]c2C)cc1 [Enoximone] | 102% |  |
| CCC(=O)OCC(=O)[C@@]1(OC(=O)CC)[C@H](C)CC2C3C([C@@H](O)C[C@@]21C)[C@@]1(C)C=CC(=O)C=C1C[C@H]3Cl (stereo partly specified) | 112% |  |
| C[N+](C)(C)CCOC(=O)CCC(=O)OCC[N+](C)(C)C [Succinylcholine chloride] | 110% |  |
| C[N+](C)(C)CCOC(=O)CCC(=O)OCC[N+](C)(C)C [Succinylcholine] | 92.9% |  |
| CCN1CCc2nc(N)oc2CC1 [B-HT 933 dihydrochloride] | 105% |  |
| CN(C)c1ccc(O)c2c1C[C@H]1C[C@H]3[C@H](N(C)C)C(O)=C(C(N)=O)C(=O)[C@@]3(O)C(O)=C1C2=O [Minocycline] | 95% |  |
| CN(C)c1ccc(O)c2c1C[C@H]1C[C@H]3[C@H](N(C)C)C(O)=C(C(N)=O)C(=O)[C@@]3(O)C(O)=C1C2=O [Minocycline hydrochloride] | 118 ± 10% |  |
| CN(C)c1ccc(O)c2c1C[C@H]1C[C@H]3[C@H](N(C)C)C(O)=C(C(N)=O)C(=O)[C@@]3(O)C(O)=C1C2=O | 107% |  |
| CC(Cc1ccc(O)c(O)c1)(NN)C(=O)O (stereo not drawn) [S-(-)-Carbidopa] | 103% |  |
| CCCCCCCCCCCCCCCCOP(=O)([O-])OCC[N+](C)(C)C [Miltefosine] | 116% |  |
| CCCCCCCCCCCCCCCCOP(=O)([O-])OCC[N+](C)(C)C | 122% |  |
